Results published in US20060058253.
For at least one entry, the source does not settle the construct or the ends of the probe. A negative result means that nothing was seen under these conditions.

Amino acid sequences for entries named in this document (tags omitted). Residues count along the entry.
UniProt P09651, 1-196: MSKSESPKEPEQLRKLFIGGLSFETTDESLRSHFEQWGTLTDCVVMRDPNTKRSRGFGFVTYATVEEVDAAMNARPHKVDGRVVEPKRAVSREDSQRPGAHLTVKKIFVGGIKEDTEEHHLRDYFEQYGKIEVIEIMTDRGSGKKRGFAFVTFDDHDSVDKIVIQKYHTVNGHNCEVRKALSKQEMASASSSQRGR

Biological target: UP1 (shortened hnRNP A1), GST fusion (UniProt P09651)
Assay: EMSA
Conditions: purified recombinant protein, protein details: GST

Sequence | binding result | binding result (5' DNA tail, RNA complementary part (2'-OMe not stated for this oligo), second best after C5-M4A1W)
GATCACTTGTGTCAACUACCACCGCCAAAGCCGCCU [C5-M4CT] | no binding | –
TTTTTGATAGGGAAATUACCACCGCCAAAGCCGCCU [C5-M4A1] | – | binds
